These are yes or no findings as the source states them, for the method shown. Some results given as binding are weak or reduced against the parent protein; the word gives no strength.

Amino acid sequences for entries named in this document (tags omitted). Residues count along the entry.
UniProt Q9Z340, residues 582-685: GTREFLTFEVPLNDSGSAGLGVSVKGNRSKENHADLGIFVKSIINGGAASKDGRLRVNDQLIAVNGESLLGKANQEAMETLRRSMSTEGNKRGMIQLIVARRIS

The values below come from paper PMC7211019.

The assay has as its target T1, FITC-labeled Par6γ PBM peptide (mouse).
T1 sequence (peptide, FITC label (position not stated)): VEEHGPAITL
Nature of the assay: fluorescence polarisation; FITC-labeled peptide (~1 μM) titrated with Par3 PDZ domains, 25 °C, buffer A (50 mM Tris pH 8.0, 100 mM NaCl, 1 mM EDTA, 1 mM DTT); both purified. For orientation: Fluorescence polarisation rises when a labelled molecule tumbles more slowly, as on binding a larger partner.

On to “Par3 PDZ3 (from UniProt Q9Z340 582-685) (domain or fragment)”, for which the binding entry is on record as “binds”.
